Results from US12383653B2, “Neutral multidomain peptide hydrogels and uses thereof” (William Marsh Rice University, priority 2018, dated 2025).

Assay: In vivo host response, subcutaneous injection model
Parameters: species or system mice
Description: In vivo compatibility studies. All experimental procedures were approved by the Rice University Institutional Animal Care and Use Committee (IACUC) and performed according to the Animal Welfare Act and NIH guidelines. Female C57BL/6 mice from 8 to 12 weeks were purchased from Charles River (Wilmington, MA). Mice were injected with 4 implants of 100 μL 1% by weight O5 hydrogel in the dorsal subcutaneous space using a 26-gauge needle. At days 3, 7, and 14 mice were euthanized, and implants were extracted, fixed with 10% neutral buffered formalin and processed into paraffin blocks. Tissue was sectioned at 5 μm thickness and stained with hematoxylin and eosin, and Masson's trichome under standard procedures. For fluorescent immunostaining, tissue sections were deparaffinized, hydrated and antigens were retrieved by boiling in sodium citrate buffer (10 mM sodium citrate, 0.05% Tween 20 at pH 6.0). Tissues were permeabilized with 0.5% Triton X and blocked with 1% BSA in PBS for 30 min. Tissues were incubated overnight at 4° C. with rat anti-Mouse F4/80 monoclonal antibody (1:50, clone BM8, eBioscience™, Cat #14-4801-82). Then, samples were incubated for 1 hour with goat anti-rat AlexaFluor® 568 (1:500, Invitrogen), followed by mounting with ProLong® Gold Antifade reagent with DAPI. Tissue slides were analyzed by confocal fluorescent microscopy.

What does the source list for `CC(=O)N1C[C@H](O)C[C@H]1C(=O)N1C[C@H](O)C[C@H]1C(=O)N1C[C@H](O)C[C@H]1C(=O)N1C[C@H](O)C[C@H]1C(=O)N1C[C@H](O)C[C@H]1C(=O)N[C@@H](CO)C(=O)N[C@@H](CC(C)C)C(=O)N[C@@H](CO)C(=O)N[C@@H](CC(C)C)C(=O)N[C@@H](CO)C(=O)N[C@@H](CC(C)C)C(=O)N[C@@H](CO)C(=O)N[C@@H](CC(C)C)C(=O)N[C@@H](CO)C(=O)N[C@@H](CC(C)C)C(=O)N[C@@H](CO)C(=O)N[C@@H](CC(C)C)C(=O)N1C[C@H](O)C[C@H]1C(=O)N1C[C@H](O)C[C@H]1C(=O)N1C[C@H](O)C[C@H]1C(=O)N1C[C@H](O)C[C@H]1C(=O)N1C[C@H](O)C[C@H]1C(N)=O` [Peptide O5, Ac-OOOOOSLSLSLSLSLSLOOOOO-CONH2] (Ac-[Hyp][Hyp][Hyp][Hyp][Hyp]SLSLSLSLSLSL[Hyp][Hyp][Hyp][Hyp][Hyp]-NH2)?
macrophage (F4/80+) infiltration of implant (day 3, 100 μL 1% by weight hydrogel subcutaneous): F4/80+ macrophages have infiltrated the periphery of the material; macrophage (F4/80+) infiltration of implant (day 7): macrophages have completely infiltrated the implant; vascularization or innervation (subcutaneous implant): did not promote vascularization or innervation

Where a SMILES comes first, the peptide text is derived from it. [ ]: non-standard residue; d: D form. Hyp = O=C(O)[C@@H]1C[C@@H](O)CN1
